Laboratory results: article PMC9339186

Target: T1, Myc-tagged recombinant TRIM18 (UniProt O15344)
T1 sequence: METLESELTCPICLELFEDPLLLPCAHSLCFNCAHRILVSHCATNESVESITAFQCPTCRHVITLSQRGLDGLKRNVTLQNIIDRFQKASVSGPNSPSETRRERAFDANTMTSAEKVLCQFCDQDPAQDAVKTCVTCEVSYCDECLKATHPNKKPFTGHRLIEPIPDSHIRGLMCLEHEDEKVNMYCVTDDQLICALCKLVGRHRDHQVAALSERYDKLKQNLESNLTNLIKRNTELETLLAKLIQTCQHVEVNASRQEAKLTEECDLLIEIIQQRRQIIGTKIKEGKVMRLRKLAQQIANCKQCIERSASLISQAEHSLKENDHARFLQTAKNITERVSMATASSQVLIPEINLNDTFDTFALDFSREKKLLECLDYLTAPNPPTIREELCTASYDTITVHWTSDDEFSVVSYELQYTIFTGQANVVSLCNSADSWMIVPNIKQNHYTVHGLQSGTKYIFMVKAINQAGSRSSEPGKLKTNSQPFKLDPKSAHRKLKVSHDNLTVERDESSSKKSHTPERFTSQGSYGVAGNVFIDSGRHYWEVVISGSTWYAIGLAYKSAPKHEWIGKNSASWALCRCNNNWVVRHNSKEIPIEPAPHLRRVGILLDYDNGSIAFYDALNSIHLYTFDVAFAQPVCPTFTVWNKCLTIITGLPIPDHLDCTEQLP
Experiment: co-IP; in vitro: purified HA-tagged protein (full-length or truncation) incubated 2 h with purified Myc-tagged partner, beads added for 2 h, immunoprecipitation with anti-Myc, immunoblot with anti-HA or anti-Myc; both purified

Substance: HA-tagged M1 catalytic domain of PPM1A (domain or fragment)
- binding: binds

No constants are given. Whether binding was seen depends on the method and setting. In cells and extracts the contact can be indirect. Binding calls can cover weak binding; strength is not graded here. Tags and fused reporters may be left off the sequences shown.
